# Measurements published in publication PMC12145851.
# T1: phospholamban (PLN) (mouse (endogenous in mouse heart)), P61014
# T1 chain: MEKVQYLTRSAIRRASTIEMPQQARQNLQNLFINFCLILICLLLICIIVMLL
# Key:
# [1] = molecular target: T1, phospholamban (PLN) (mouse (endogenous …)); assay: affinity purification with mass spectrometry; xIP-MS: mouse hearts fixed (cross-linked) overnight in 3 % glyoxal, RIPA lysate; 1 mg soluble protein with 2 μg PLN antibody overnight at 4 °C, protein A/G beads, on-bead trypsin digestion, DIA MS; mock IP without primary antibody as control; details: remark: other sources report otherwise
# [2] = molecular target: T1, phospholamban (PLN) (mouse (endogenous …)); assay: affinity purification with mass spectrometry; IP-MS: unfixed, snap-frozen mouse hearts, RIPA lysate; 1 mg soluble protein with 2 μg PLN antibody overnight at 4 °C, protein A/G beads, on-bead trypsin digestion, DIA MS; mock IP without primary antibody as control; details: remark: other sources report otherwise
Binder,binding [1],binding [2]
"von Hippel-Lindau, P40338 1-181 (protein) MPRKAASPEEAAGEPGPEEMEAGRPRPVLRSVNSREPSQVIFCNRSPRVVLPLWLNFDGEPQPYPILPPGTGRRIHSYRGHLWLFRDAGTHDGLLVNQTELFVPSLNVDGQPIFANITLPVYTLKERCLQVVRSLVKPENYRRLDIVRSLYEDLEDYPSVRKDIQRLSQEHLESQHLEEEP",no binding,no binding
"HS-associated protein X-1 (HAX-1), O35387 1-280 (protein) MSVFDLFRGFFGFPGPRSHRDPFFGGMTRDDDDDDDDDDEAEEDRGAWGRESYAFDGSQPPEEFGFSFSPRGGMRFHGNFGFDDLVRDFNSIFSEMGAWTLPSHSPELPGPESETPGERLREGQTLRDSMLKYPDSHQPRIFEGVLESHAKPESPKPAPDWGSQGPFHRLDDTWPVSPHSRAKEDKDLDSQVSQEGLGPLLQPQPKSYFKSISVTKITKPDGTVEERRTVVDSEGRRETTVTHQEAHDSSRSDPDSQRSSALDDPFSILDLLLGRWFRSR",no binding,no binding

# Results are given in words; binding and its absence hold for the method and conditions named. In cells and extracts the contact can be indirect. Here binding means that the protein was enriched with, or labelled near, the bait; the list need not be complete. No binding means not detected with the bait.
